Data as given in PubChem BioAssay AID1259308 (NCATS, 2017)
The deposit covers about 59,000 reagents; below is an unselected part. About 1,510 of them (2.6%) count as active. 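Calls use total luciferase alone and ignore viability, so some active siRNAs may act by altering cell number.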 The numbers tell different reagents against one gene apart. Further read-outs or replicates are left out here.

- Screen: 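Knock-downs that increase output of a recombinant reporter protein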 (primary screen)
- System: human HEK293 embryonic kidney cells stably expressing firefly luciferase (HEK-CMV-Luc2-Hygro)
- Reagent: single siRNA against human genes, 0.8 pmol siRNA per well
- Duration: 72 h
- Read-out: 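Reporter luminescence and viable-cell signal on separate replicate plates, given as percent of non-targeting control and median/MAD z-scores, plus per-cell luciferase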
- Direction: total luciferase, z-score and total luciferase, % of control: higher = more reporter protein produced; luciferase per cell, z-score: higher = more reporter output per viable cell
- Hit rule: 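An siRNA counts as active if its total luciferase robust z-score exceeds 3; genes with two or more such siRNAs out of three were retested with fresh siRNAs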
- Meaning of the calls: active = raised luciferase; inactive = no rise

no.	Gene	siRNA no.	total luciferase, z-score	total luciferase, % of control	luciferase per cell, z-score	outcome
1	CACNA1E (calcium voltage-gated channel subunit alpha1 E)	1	0.202	85.9	0.0616	inactive
2	CACNA1E (calcium voltage-gated channel subunit alpha1 E)	2	0.082	83.5	-0.145	inactive
3	CACNA1E (calcium voltage-gated channel subunit alpha1 E)	3	0.214	86.1	0.12	inactive
4	SLC10A7	1	-0.787	66.2	-1.03	inactive
5	SLC10A7	2	-0.382	74.3	-0.387	inactive
6	SLC10A7	3	2.16	125	1.51	inactive
7	ADHFE1 (alcohol dehydrogenase iron containing 1)	1	-0.831	65.4	-0.405	inactive
8	ADHFE1 (alcohol dehydrogenase iron containing 1)	2	0.16	85.1	0.513	inactive
9	ADHFE1 (alcohol dehydrogenase iron containing 1)	3	-0.54	71.2	-0.46	inactive
10	ZNF763 (zinc finger protein 763)	1	-0.149	78.9	0.316	inactive
11	ZNF763 (zinc finger protein 763)	2	-0.856	64.9	0.202	inactive
12	ZNF763 (zinc finger protein 763)	3	0.908	100	1.18	inactive
13	PCNT (pericentrin)	1	-0.436	73.2	-0.17	inactive
14	PCNT (pericentrin)	2	0.619	94.2	1.07	inactive
15	PCNT (pericentrin)	3	0.0401	82.7	-0.304	inactive
16	ABRACL (ABRA C-terminal like)	1	0.428	90.4	0.152	inactive
17	ABRACL (ABRA C-terminal like)	2	2.65	135	1.59	inactive
18	ABRACL (ABRA C-terminal like)	3	1.64	115	1.5	inactive
19	FAM86C1P (family with sequence similarity 86 member C1, pseudogene)	1	-0.73	67.4	-0.138	inactive
20	FAM86C1P (family with sequence similarity 86 member C1, pseudogene)	2	0.311	88.1	-0.0421	inactive
21	FAM86C1P (family with sequence similarity 86 member C1, pseudogene)	3	-0.883	64.3	-1.17	inactive
22	SRM (spermidine synthase)	1	2.28	127	1.57	inactive
23	SRM (spermidine synthase)	2	-0.71	67.8	-0.961	inactive
24	SRM (spermidine synthase)	3	-1.39	54.3	-1.54	inactive
25	KIAA0408	1	1.88	119	1.59	inactive
26	KIAA0408	2	0.0266	82.4	-0.274	inactive
27	KIAA0408	3	0.463	91.1	-0.325	inactive

Sorted by “total luciferase, % of control” (descending): 5 of the entries above
Gene	siRNA no.	total luciferase, z-score	total luciferase, % of control	luciferase per cell, z-score	outcome
ADHFE1 (alcohol dehydrogenase iron containing 1)	2	0.16	85.1	0.513	inactive
ZNF763 (zinc finger protein 763)	1	-0.149	78.9	0.316	inactive
ADHFE1 (alcohol dehydrogenase iron containing 1)	3	-0.54	71.2	-0.46	inactive
ADHFE1 (alcohol dehydrogenase iron containing 1)	1	-0.831	65.4	-0.405	inactive
ZNF763 (zinc finger protein 763)	2	-0.856	64.9	0.202	inactive

Further reagents follow.
no.	Gene	siRNA no.	total luciferase, z-score	total luciferase, % of control	luciferase per cell, z-score	outcome
28	RRAS2 (RAS related 2)	1	1.34	109	2.65	inactive
29	RRAS2 (RAS related 2)	2	0.449	90.8	0.519	inactive
30	RRAS2 (RAS related 2)	3	-1.11	59.8	-0.548	inactive
31	SSRP1 (structure specific recognition protein 1)	1	-2.31	36	-2.38	inactive
32	SSRP1 (structure specific recognition protein 1)	2	-1.25	57.1	-0.789	inactive
33	SSRP1 (structure specific recognition protein 1)	3	-1.29	56.2	-0.893	inactive
34	TRPV3	1	-0.681	68.3	-0.233	inactive
35	TRPV3	2	0.798	97.8	0.967	inactive
36	TRPV3	3	-0.287	76.2	-0.759	inactive
37	LPCAT4 (lysophosphatidylcholine acyltransferase 4)	1	4.41	170	3.02	active
38	LPCAT4 (lysophosphatidylcholine acyltransferase 4)	2	-0.293	76.1	-0.385	inactive
39	LPCAT4 (lysophosphatidylcholine acyltransferase 4)	3	-0.998	62	-0.939	inactive
40	OR2A25 (olfactory receptor family 2 subfamily A member 25)	1	0.0437	82.8	-0.159	inactive
41	OR2A25 (olfactory receptor family 2 subfamily A member 25)	2	-0.454	72.8	-0.424	inactive
42	OR2A25 (olfactory receptor family 2 subfamily A member 25)	3	1.18	105	0.545	inactive
43	EEF1A1P48	1	-1.26	56.8	-1.61	inactive
44	EEF1A1P48	2	-0.844	65.1	-1.4	inactive
45	EEF1A1P48	3	-1.07	60.5	-0.533	inactive
46	POP4 (POP4 ribonuclease P/MRP subunit)	1	0.268	87.2	0.179	inactive
47	POP4 (POP4 ribonuclease P/MRP subunit)	2	-0.414	73.7	-0.722	inactive
48	POP4 (POP4 ribonuclease P/MRP subunit)	3	-0.761	66.8	-0.555	inactive
49	AFP (alpha fetoprotein)	1	0.35	88.9	-0.146	inactive
50	AFP (alpha fetoprotein)	2	0.977	101	1.65	inactive
51	AFP (alpha fetoprotein)	3	1.02	102	0.406	inactive
52	LINC03042 (long independently transcribed non-coding RNA 3042)	1	1.58	113	1.92	inactive
53	LINC03042 (long independently transcribed non-coding RNA 3042)	2	1.6	114	1.65	inactive
54	LINC03042 (long independently transcribed non-coding RNA 3042)	3	1.65	115	2.84	inactive
55	NBPF3 (NBPF member 3)	1	0.0249	82.4	-0.508	inactive
56	NBPF3 (NBPF member 3)	2	-0.37	74.5	-0.00927	inactive
57	NBPF3 (NBPF member 3)	3	-2.22	37.7	-2.38	inactive
